In PubChem BioAssay (NCATS):
This is one part of the list. Shown are side measurements of this screen, not its main read-out; they come without a call. The list favours compounds with an active or inconclusive main result. The note in brackets gives the kind of curve behind each potency; many fits are weak.

Experiment: qHTS for identification of novel therapeutic agents for treatment of microphthalmiaassociated transcription factor (MiT) renal cell carcinoma (RCC) (AID 1963991)
Conditions: CellTiter-Glo, 48 h; for z-score: stronger effect = lower value
Method in brief: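 Three TFE3-fusion RCC cell lines (UOK109, UOK124, UOK145), 500 cells/well, were exposed to the 1912-compound MIPE 4.0 library for 48 hours at 37 C. Viability was read by CellTiter-Glo luminescence, normalised to DMSO (100%) and empty wells (0%), with 11-concentration curve fits.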

[1] = TFE3-RCC UOK109 viability, measured here: UOK109 Z-AUC
[2] = TFE3-RCC viability, measured here: UOK124 Z-AUC
[3] = TFE3-RCC viability, measured here: UOK124 cell viability
[4] = TFE3-RCC viability, measured here: UOK145 Z-AUC
[5] = TFE3-RCC viability, measured here: UOK145 cell viability

Q: For `O=c1[nH]c(=O)n([C@H]2C[C@@H](O)[C@@H](CO)O2)cc1F`, which z-score [1] is on record?
A: The z-score was -0.672.

Q: What about the z-score [2] of the same molecule?
A: Its z-score is -0.149.

Q: And the AC50 [3]?
A: The AC50 was 5.9 µM [falling, partial curve].

Q: What about the z-score [4] of the same molecule?
A: Its z-score is -1.2.

Q: What about the AC50 [5] of the same molecule?
A: The AC50 was 1.05 µM [falling, full curve].

Q: With `COc1cc2ncnc(-n3nc(-c4ccccn4)nc3N)c2cc1OC` as the molecule, how does the z-score [1] read?
A: Its z-score is 0.568.

Q: And the z-score [2]?
A: The z-score was -0.123.

Q: And the AC50 [3]?
A: The AC50 was 5.9 µM [falling, full curve].

Q: And the z-score [4]?
A: Its z-score is 0.0897.

Q: What about the AC50 [5] of the same molecule?
A: The AC50 was 4.69 µM [falling, full curve].

Q: What does the source list for `CC(C)(O)Cn1c(NC(=O)c2ccc(-c3cn[nH]c3)s2)nc2cc(CN3CCOCC3)ccc21`?
A: z-score [1]: -0.485; z-score [2]: -1.85; AC50 [3]: 2.09 µM [falling, full curve]; z-score [4]: -0.799; AC50 [5]: 2.64 µM [falling, full curve]

Q: Which z-score [1] does the source give for `CC(=O)Nc1sc2c(c1-c1nc3ccccc3s1)CNC2` here?
A: Its z-score is -0.0333.

Q: What about the z-score [2] of the same molecule?
A: Its z-score is 0.14.

Q: And the AC50 [3]?
A: The AC50 was 29.6 µM [falling, partial curve, poor fit].

Q: What about the z-score [4] of the same molecule?
A: The z-score was -0.753.

Q: And the AC50 [5]?
A: The AC50 was 14.8 µM [falling, partial curve].

Q: With `CN(C)CCOc1ccc(-c2nc(-c3ccc4c(c3)CCC4=NO)c(-c3ccncc3)[nH]2)cc1` as the molecule, how does the z-score [1] read?
A: The z-score was -0.263.

Q: And the z-score [2]?
A: Its z-score is 0.371.

Q: What about the AC50 [3] of the same molecule?
A: Its AC50 is 20.9 µM [falling, partial curve].

Q: What about the z-score [4] of the same molecule?
A: The z-score was 0.465.

Q: And the AC50 [5]?
A: The AC50 was 26.4 µM [falling, partial curve].

Q: For `COc1cc2nc(-c3cc(F)ccc3O)nc(N[C@@H]3CNC[C@@H]3C(C)(C)O)c2cc1OC`, which z-score [1] is on record?
A: Its z-score is -0.872.

Q: And the z-score [2]?
A: The z-score was -0.644.

Q: What about the AC50 [3] of the same molecule?
A: The AC50 was 13.2 µM [falling, partial curve].

Q: What about the z-score [4] of the same molecule?
A: The z-score was 0.162.

Q: What about the AC50 [5] of the same molecule?
A: The AC50 was 20.9 µM [falling, partial curve].

Q: What does the source list for `CC(C)=CCCC(C)=CCCC(C)=CCSc1ccccc1C(=O)O`?
A: z-score [1]: 0.182; z-score [2]: 0.697; AC50 [3]: 6.62 µM [falling, partial curve]; z-score [4]: 0.258; AC50 [5]: 11.8 µM [falling, partial curve]

Q: Which results are given for `C[C@@H]1[C@H](O)[C@@H](C)C=CC=CC=CC=CC=CC=CC=C[C@H](O[C@@H]2O[C@H](C)[C@H](O)[C@H](N)[C@@H]2O)C[C@@H]2O[C@](O)(C[C@@H](O)C[C@@H](O)[C@H](O)CC[C@@H](O)C[C@@H](O)CC(=O)O[C@H]1C)C[C@H](O)[C@@H]2C(=O)O`?
A: z-score [1]: 1.14; z-score [2]: 0.943; AC50 [3]: 3.32 µM [rising, partial curve, poor fit]; z-score [4]: -1.19; AC50 [5]: 1.18 µM [falling, full curve]

Q: For `CN(C)C1CCN(C(=O)c2ccc(NC(=O)Nc3nc(N4CCOCC4)nc(N4CCOCC4)n3)cc2)CC1`, which z-score [1] is on record?
A: The z-score was -0.371.

Q: What about the z-score [2] of the same molecule?
A: Its z-score is -1.04.

Q: What about the AC50 [3] of the same molecule?
A: Its AC50 is 0.166 µM [falling, full curve].

Q: And the z-score [4]?
A: Its z-score is -0.99.

Q: What about the AC50 [5] of the same molecule?
A: Its AC50 is 0.743 µM [falling, full curve].

Q: Which z-score [1] does the source give for `C[C@@H](CN1CC(=O)NC(=O)C1)N1CC(=O)NC(=O)C1` here?
A: The z-score was 0.325.

Q: And the z-score [2]?
A: Its z-score is 0.956.

Q: And the AC50 [3]?
A: The AC50 was 2.64 µM [falling, full curve].

Q: And the z-score [4]?
A: Its z-score is 0.403.

Q: What about the AC50 [5] of the same molecule?
A: Its AC50 is 37.2 µM [falling, partial curve, poor fit].

Q: With `Cc1ccc2nc(NCCN)c3ncc(C)n3c2c1` as the molecule, how does the z-score [1] read?
A: Its z-score is -1.62.

Q: And the z-score [2]?
A: The z-score was -0.442.

Q: What about the AC50 [3] of the same molecule?
A: Its AC50 is 18.7 µM [falling, partial curve].

Q: What about the z-score [4] of the same molecule?
A: Its z-score is -0.43.

Q: What about the AC50 [5] of the same molecule?
A: The AC50 was 3.72 µM [falling, full curve].

Q: Which z-score [1] does the source give for `CC[C@@H]1C=C(C)C[C@H](C)C[C@H](OC)[C@H]2O[C@@](O)(C(=O)C(=O)N3CCCC[C@@H]3C(=O)O[C@H](C(C)=C[C@@H]3CC[C@H](Cl)[C@H](OC)C3)[C@H](C)[C@@H](O)CC1=O)[C@H](C)C[C@H]2OC` here?
A: The z-score was 0.532.

Q: What about the z-score [2] of the same molecule?
A: The z-score was 0.567.

Q: And the AC50 [3]?
A: The AC50 was 16.6 µM [falling, partial curve].

Q: And the z-score [4]?
A: Its z-score is 0.485.

Q: And the AC50 [5]?
A: Its AC50 is 23.5 µM [falling, single point].

Q: Which z-score [1] does the source give for `CC1(C)C(N(O)C(=O)Nc2ccc(Cl)cc2)N(c2ccc(Cl)cc2)C(=O)N1CC(=O)NN=CC=Cc1ccc([N+](=O)[O-])o1` (stereo not given) here?
A: The z-score was -0.0156.

Q: What about the z-score [2] of the same molecule?
A: The z-score was 0.0479.

Q: What about the AC50 [3] of the same molecule?
A: The AC50 was 11.8 µM [falling, partial curve].

Q: And the z-score [4]?
A: Its z-score is -0.111.

Q: And the AC50 [5]?
A: Its AC50 is 26.4 µM [falling, single point].

Q: With `CC(=O)N1CCN(c2ccc(OCc3nn(C)c(C)c3-c3cccc4c(CCCOc5cc(C)c(Cl)c(C)c5)c(C(=O)O)n(Cc5cccnc5)c34)cc2)CC1` as the molecule, how does the z-score [1] read?
A: The z-score was 0.433.

Q: And the z-score [2]?
A: Its z-score is 0.531.

Q: And the AC50 [3]?
A: The AC50 was 33.2 µM [falling, single point].

Q: What about the z-score [4] of the same molecule?
A: The z-score was -0.728.

Q: What about the AC50 [5] of the same molecule?
A: The AC50 was 23.5 µM [falling, single point].

Q: Which results are given for `C=CCNC1=C2C[C@@H](C)C[C@H](OC)[C@@H](O)[C@@H](C)C=C(C)[C@H](OC(N)=O)[C@@H](OC)C=CC=C(C)C(=O)NC(=CC1=O)C2=O`?
A: z-score [1]: -0.656; z-score [2]: -0.919; AC50 [3]: 13.2 µM [falling, partial curve]; z-score [4]: -1.78; AC50 [5]: 0.418 µM [falling, full curve]
